Results are given in words; binding and its absence hold for the method and conditions named.
Target: T1, Arabidopsis 14-3-3 isoform kappa (At14-3-3-κ^1−248) (Arabidopsis thaliana) (UniProt P48348)
T1 sequence: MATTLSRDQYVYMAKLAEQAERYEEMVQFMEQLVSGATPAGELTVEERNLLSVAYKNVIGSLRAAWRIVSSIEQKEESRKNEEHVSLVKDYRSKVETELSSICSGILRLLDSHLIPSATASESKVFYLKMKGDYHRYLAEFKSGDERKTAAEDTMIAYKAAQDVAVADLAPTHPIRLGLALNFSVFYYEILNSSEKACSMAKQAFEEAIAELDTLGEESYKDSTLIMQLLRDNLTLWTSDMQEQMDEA
Assay: ITC; 14-3-3κ versus purified globular domains of BR signaling components (BRI1, BAK1 and BSK1 after auto-/transphosphorylation); Nano ITC, 25°C, 25 mM Hepes pH 7.0, 50 mM KCl; both purified

By UniProt entry, the sequences of proteins in these tests, tags left out. Residues count along the entry.
UniProt Q9LR78: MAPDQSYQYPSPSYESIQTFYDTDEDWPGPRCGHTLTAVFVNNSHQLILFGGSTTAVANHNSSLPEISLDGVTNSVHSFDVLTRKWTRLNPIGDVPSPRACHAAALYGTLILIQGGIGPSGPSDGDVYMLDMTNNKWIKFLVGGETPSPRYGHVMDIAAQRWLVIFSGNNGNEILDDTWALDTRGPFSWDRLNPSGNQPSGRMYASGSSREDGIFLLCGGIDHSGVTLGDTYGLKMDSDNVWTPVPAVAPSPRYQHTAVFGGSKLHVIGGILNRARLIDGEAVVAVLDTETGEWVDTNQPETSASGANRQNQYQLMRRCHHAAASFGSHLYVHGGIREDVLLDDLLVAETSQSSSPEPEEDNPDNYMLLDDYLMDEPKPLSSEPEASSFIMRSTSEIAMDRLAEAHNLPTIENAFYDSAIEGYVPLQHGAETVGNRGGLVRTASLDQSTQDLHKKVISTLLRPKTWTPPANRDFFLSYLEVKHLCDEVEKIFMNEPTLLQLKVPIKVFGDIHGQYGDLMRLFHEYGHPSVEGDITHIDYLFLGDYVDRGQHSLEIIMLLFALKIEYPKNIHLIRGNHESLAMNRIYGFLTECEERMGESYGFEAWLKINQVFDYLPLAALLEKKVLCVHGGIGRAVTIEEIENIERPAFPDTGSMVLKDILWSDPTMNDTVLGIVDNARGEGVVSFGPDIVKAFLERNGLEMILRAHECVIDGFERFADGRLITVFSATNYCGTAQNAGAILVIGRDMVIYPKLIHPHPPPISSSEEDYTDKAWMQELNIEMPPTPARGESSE
UniProt Q944A7, residues 55-512: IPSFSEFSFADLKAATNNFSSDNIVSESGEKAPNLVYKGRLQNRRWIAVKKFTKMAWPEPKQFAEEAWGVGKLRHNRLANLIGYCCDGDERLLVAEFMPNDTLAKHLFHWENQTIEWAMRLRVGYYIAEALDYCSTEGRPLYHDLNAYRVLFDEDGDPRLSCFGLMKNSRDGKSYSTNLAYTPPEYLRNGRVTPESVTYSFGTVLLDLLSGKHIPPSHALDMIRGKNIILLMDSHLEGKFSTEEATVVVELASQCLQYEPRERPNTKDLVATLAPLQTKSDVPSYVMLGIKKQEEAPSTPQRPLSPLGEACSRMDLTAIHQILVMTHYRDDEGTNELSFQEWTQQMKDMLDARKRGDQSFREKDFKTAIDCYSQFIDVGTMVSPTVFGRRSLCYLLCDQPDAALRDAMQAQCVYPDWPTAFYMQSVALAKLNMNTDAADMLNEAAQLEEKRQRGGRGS

Substance	binding
full-length BSU1 (residues 1–793) (from UniProt Q9LR78 1-793) (enzyme)	no binding
BSK1 (residues 55–512), after incubation with BRI1^814−1196 (from UniProt Q944A7 55-512) (domain or fragment)	no binding

From paper PMC11558545, “Mechanistic Insights into the Function of 14-3-3 Proteins as Negative Regulators of Brassinosteroid Signaling in Arabidopsis” (Plant and Cell Physiology, 2024)
